{"source": "PubChem BioAssay AID504808 (Drosophila RNAi Screening Center, 2011)", "aim": "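Genes whose loss lifts activity of an E2F-responsive reporter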 (primary screen)", "cells": "Drosophila S2 cells", "knock-down reagent": "long dsRNA against Drosophila genes", "read-out": "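Firefly luciferase driven by E2F sites, normalised to Renilla luciferase on the same minimal promoter, measured by plate reader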", "reading the numbers": "E2F firefly: higher = more E2F reporter activity; Renilla normaliser: higher = more normaliser reporter signal", "rule for the call": "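a knock-down counted as active when the firefly/Renilla E2F signal rose above 50%, a threshold chosen arbitrarily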", "note": "The screen tested about 21,000 reagents; below is an unselected part of those with a known target gene and a result. Over the whole deposit, 18 (0.084%) were called active. 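Raw counts without plate normalisation, one of two replicates; the ratio scores behind the calls were not deposited.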 Not given: the amount of reagent, the time to read-out."}
{"target":"Gtpx","DRSC id":"DRSC08221","E2F firefly, rep 1":83696,"Renilla normaliser, rep 1":3617,"outcome":"inactive"}
{"target":"CG10953","DRSC id":"DRSC06021","E2F firefly, rep 1":1.43e5,"Renilla normaliser, rep 1":5477,"outcome":"inactive"}
{"target":"CG4586","DRSC id":"DRSC18373","E2F firefly, rep 1":8080,"Renilla normaliser, rep 1":764,"outcome":"inactive"}
{"target":"stops (slow termination of phototransduction)","DRSC id":"DRSC15095","E2F firefly, rep 1":1.10e5,"Renilla normaliser, rep 1":6342,"outcome":"inactive"}
{"target":"stops (slow termination of phototransduction)","DRSC id":"DRSC15096","E2F firefly, rep 1":1.10e5,"Renilla normaliser, rep 1":5473,"outcome":"inactive"}
{"target":"stops (slow termination of phototransduction)","DRSC id":"DRSC15097","E2F firefly, rep 1":1.20e5,"Renilla normaliser, rep 1":6691,"outcome":"inactive"}
{"target":"ana3 (anastral spindle 3)","DRSC id":"DRSC06289","E2F firefly, rep 1":1.08e5,"Renilla normaliser, rep 1":4196,"outcome":"inactive"}
{"target":"Mul1 (Mitochondrial E3 ubiquitin protein ligase 1)","DRSC id":"DRSC08174","E2F firefly, rep 1":95603,"Renilla normaliser, rep 1":4070,"outcome":"inactive"}
{"target":"CG34376","DRSC id":"DRSC14695","E2F firefly, rep 1":92781,"Renilla normaliser, rep 1":4795,"outcome":"inactive"}
{"target":"CG34376","DRSC id":"DRSC14696","E2F firefly, rep 1":1.30e5,"Renilla normaliser, rep 1":6776,"outcome":"inactive"}
{"target":"CG34376","DRSC id":"DRSC14701","E2F firefly, rep 1":1.08e5,"Renilla normaliser, rep 1":6064,"outcome":"inactive"}
{"target":"CG10513","DRSC id":"DRSC14248","E2F firefly, rep 1":1630,"Renilla normaliser, rep 1":1064,"outcome":"inactive"}
{"target":"Burs (Bursicon)","DRSC id":"DRSC14595","E2F firefly, rep 1":1.26e5,"Renilla normaliser, rep 1":8602,"outcome":"inactive"}
{"target":"Setd3 (SET domain containing 3)","DRSC id":"DRSC17840","E2F firefly, rep 1":1.07e5,"Renilla normaliser, rep 1":6279,"outcome":"inactive"}
{"target":"Setd3 (SET domain containing 3)","DRSC id":"DRSC18269","E2F firefly, rep 1":51677,"Renilla normaliser, rep 1":3649,"outcome":"inactive"}
{"target":"ScsbetaG (Succinyl-coenzyme A synthetase beta subunit, GDP-forming)","DRSC id":"DRSC11294","E2F firefly, rep 1":82726,"Renilla normaliser, rep 1":3827,"outcome":"inactive"}
{"target":"CG32829","DRSC id":"DRSC00961","E2F firefly, rep 1":1.40e5,"Renilla normaliser, rep 1":5213,"outcome":"inactive"}
{"target":"CG13311","DRSC id":"DRSC09982","E2F firefly, rep 1":89589,"Renilla normaliser, rep 1":3669,"outcome":"inactive"}

A portion of the results above, as a working copy:
{"target":"Gtpx","DRSC id":"DRSC08221","E2F firefly, rep 1":83696,"Renilla normaliser, rep 1":3617,"outcome":"inactive"}
{"target":"CG10953","DRSC id":"DRSC06021","E2F firefly, rep 1":1.43e5,"Renilla normaliser, rep 1":5477,"outcome":"inactive"}
{"target":"CG4586","DRSC id":"DRSC18373","E2F firefly, rep 1":8080,"Renilla normaliser, rep 1":764,"outcome":"inactive"}

Additional entries:
{"target":"CG18011","DRSC id":"DRSC06697","E2F firefly, rep 1":2749,"Renilla normaliser, rep 1":220,"outcome":"inactive"}
{"target":"CG18011","DRSC id":"DRSC06706","E2F firefly, rep 1":1.59e5,"Renilla normaliser, rep 1":5374,"outcome":"inactive"}
{"target":"CG12547","DRSC id":"DRSC07759","E2F firefly, rep 1":97324,"Renilla normaliser, rep 1":4146,"outcome":"inactive"}
{"target":"dila (dilatory)","DRSC id":"DRSC06607","E2F firefly, rep 1":1.26e5,"Renilla normaliser, rep 1":4610,"outcome":"inactive"}
{"target":"CG13255","DRSC id":"DRSC11702","E2F firefly, rep 1":1.37e5,"Renilla normaliser, rep 1":7232,"outcome":"inactive"}
{"target":"CG13862","DRSC id":"DRSC14712","E2F firefly, rep 1":1.20e5,"Renilla normaliser, rep 1":7729,"outcome":"inactive"}
{"target":"CG7903","DRSC id":"DRSC16338","E2F firefly, rep 1":1.17e5,"Renilla normaliser, rep 1":6420,"outcome":"inactive"}
{"target":"CG14418","DRSC id":"DRSC18637","E2F firefly, rep 1":91394,"Renilla normaliser, rep 1":4439,"outcome":"inactive"}
{"target":"su(f) (suppressor of forked)","DRSC id":"DRSC20907","E2F firefly, rep 1":1.35e5,"Renilla normaliser, rep 1":6543,"outcome":"inactive"}
{"target":"CG5172","DRSC id":"DRSC19936","E2F firefly, rep 1":2.20e5,"Renilla normaliser, rep 1":5677,"outcome":"inactive"}
{"target":"CG33500","DRSC id":"DRSC09115","E2F firefly, rep 1":1.05e5,"Renilla normaliser, rep 1":4950,"outcome":"inactive"}
{"target":"Or92a (Odorant receptor 92a)","DRSC id":"DRSC16771","E2F firefly, rep 1":1.54e5,"Renilla normaliser, rep 1":7107,"outcome":"inactive"}
{"target":"Nse4 (Non-SMC element 4)","DRSC id":"DRSC02239","E2F firefly, rep 1":1.47e5,"Renilla normaliser, rep 1":4578,"outcome":"inactive"}
{"target":"Cyp4p2 (Cytochrome P450 4p2)","DRSC id":"DRSC07373","E2F firefly, rep 1":3330,"Renilla normaliser, rep 1":193,"outcome":"inactive"}
{"target":"TwdlV (TweedleV)","DRSC id":"DRSC12226","E2F firefly, rep 1":1.53e5,"Renilla normaliser, rep 1":6830,"outcome":"inactive"}
{"target":"GlcAT-P (Glucuronyltransferase P)","DRSC id":"DRSC10603","E2F firefly, rep 1":77966,"Renilla normaliser, rep 1":3566,"outcome":"inactive"}
{"target":"GlcAT-P (Glucuronyltransferase P)","DRSC id":"DRSC10604","E2F firefly, rep 1":82574,"Renilla normaliser, rep 1":4631,"outcome":"inactive"}
{"target":"CG34188","DRSC id":"DRSC05549","E2F firefly, rep 1":1.30e5,"Renilla normaliser, rep 1":5570,"outcome":"inactive"}
